Results as given in paper PMC6128908, “Potent PDZ-Domain PICK1 Inhibitors that Modulate Amyloid Beta-Mediated Synaptic Dysfunction” (Scientific Reports, 2018).
Results are given in words; binding and its absence hold for the method and conditions named. Binding can be weak; no strength is given.

The chains behind the UniProt entries cited, without tags or fusion partners. Where a name states a change or a piece, a line headed by the entry shows the natural chain unless it says otherwise.
UniProt Q9BYB0: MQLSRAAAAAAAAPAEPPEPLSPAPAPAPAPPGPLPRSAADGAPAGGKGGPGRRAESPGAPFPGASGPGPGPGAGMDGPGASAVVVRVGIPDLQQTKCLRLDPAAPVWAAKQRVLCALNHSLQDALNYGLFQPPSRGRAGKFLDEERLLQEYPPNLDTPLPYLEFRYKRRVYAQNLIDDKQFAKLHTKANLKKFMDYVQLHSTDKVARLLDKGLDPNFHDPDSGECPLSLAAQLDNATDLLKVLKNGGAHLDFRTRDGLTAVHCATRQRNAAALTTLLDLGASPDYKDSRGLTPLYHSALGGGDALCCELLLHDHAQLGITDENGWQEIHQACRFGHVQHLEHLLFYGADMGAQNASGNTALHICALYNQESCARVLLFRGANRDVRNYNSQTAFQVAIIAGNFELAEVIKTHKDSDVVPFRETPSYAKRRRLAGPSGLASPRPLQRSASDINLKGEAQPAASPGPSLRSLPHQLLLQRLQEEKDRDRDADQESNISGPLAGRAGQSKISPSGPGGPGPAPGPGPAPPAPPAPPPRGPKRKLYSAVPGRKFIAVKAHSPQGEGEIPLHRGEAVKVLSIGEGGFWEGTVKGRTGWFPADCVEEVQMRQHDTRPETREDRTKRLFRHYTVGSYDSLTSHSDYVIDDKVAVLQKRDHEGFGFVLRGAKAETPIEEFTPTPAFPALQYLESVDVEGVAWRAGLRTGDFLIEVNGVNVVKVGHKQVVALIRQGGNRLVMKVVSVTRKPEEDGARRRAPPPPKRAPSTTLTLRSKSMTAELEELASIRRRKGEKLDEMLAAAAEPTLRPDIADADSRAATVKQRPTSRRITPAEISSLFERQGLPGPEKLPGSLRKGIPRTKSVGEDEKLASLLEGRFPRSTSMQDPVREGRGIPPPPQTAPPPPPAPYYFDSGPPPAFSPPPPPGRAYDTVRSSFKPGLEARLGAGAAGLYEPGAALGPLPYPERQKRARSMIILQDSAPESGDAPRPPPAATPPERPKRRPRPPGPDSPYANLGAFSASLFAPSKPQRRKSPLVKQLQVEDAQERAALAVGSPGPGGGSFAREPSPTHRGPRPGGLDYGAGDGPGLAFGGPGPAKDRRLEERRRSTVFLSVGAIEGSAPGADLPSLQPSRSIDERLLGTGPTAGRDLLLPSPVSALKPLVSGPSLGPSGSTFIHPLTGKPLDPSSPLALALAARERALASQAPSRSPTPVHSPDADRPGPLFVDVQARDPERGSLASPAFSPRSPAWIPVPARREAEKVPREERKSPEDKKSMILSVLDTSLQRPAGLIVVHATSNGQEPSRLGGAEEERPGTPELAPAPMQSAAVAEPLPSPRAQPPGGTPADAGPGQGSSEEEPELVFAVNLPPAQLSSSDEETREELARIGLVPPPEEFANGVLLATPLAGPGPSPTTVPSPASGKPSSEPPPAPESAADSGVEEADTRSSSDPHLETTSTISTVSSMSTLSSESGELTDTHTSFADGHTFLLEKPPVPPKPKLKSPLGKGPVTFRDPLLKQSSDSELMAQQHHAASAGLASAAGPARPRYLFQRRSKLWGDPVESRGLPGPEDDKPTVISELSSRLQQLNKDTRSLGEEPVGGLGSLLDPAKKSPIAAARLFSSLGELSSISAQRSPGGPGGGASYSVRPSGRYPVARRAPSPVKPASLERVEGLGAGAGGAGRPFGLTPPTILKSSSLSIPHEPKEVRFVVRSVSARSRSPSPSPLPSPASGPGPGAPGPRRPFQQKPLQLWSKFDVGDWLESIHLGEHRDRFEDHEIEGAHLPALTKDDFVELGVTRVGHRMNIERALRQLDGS

Target: Human Shank3 PDZ domain (residues 663–757) (human) (UniProt Q9BYB0)
Assay: fluorescence polarisation; competition FP: FITC-labeled peptides fixed at 5 nM, non-saturating protein concentrations (PICK1 600 nM; PSD95 PDZ 1–2 8 µM; Shank3 8 µM), unlabeled peptides or compound varied; normalised to binding and tracer-only controls; both purified

## YIPEAQTRL [GKAP peptide]
  binding: binds
